According to article PMC8457756:
For at least one entry, the source does not settle the construct or the ends of the probe. Weaker means in comparison with the reference protein, sequence or condition of that experiment.

Tested on: BlaI_0696 (Clostridium thermocellum DSM 1313)
Test: EMSA
Settings: EMSA: 0.5 uM dsDNA probe, semi-pure TF titrated, PBS + NP40, 10 uL; 6% polyacrylamide gel, 0.5x TBE, 100 V 1 h, room temperature running buffer; recombinant protein; protein details: C-terminal 6xHis

Sequence	binding result
AATTCCCTCGGGTCTATCAGCACTCCG (double strand) [BlaI_0696 test oligo]	binds
TGATATGGGGTGTTTGCTGTTTTTGCC (double strand) [negative oligo 27 bp]	binds more weakly
